According to patent publication US12150998B2, “Bicyclic peptide ligands specific for P-selectin” (BicycleTx Limited, priority 2021, dated 2024):
Part of at least one peptide drawing is inferred or uncertain, most often the ends.

System: P-selectin
Type: cell-based, human

## CC(C)C[C@@H]1NC(=O)[C@H](CO)NC(=O)[C@@H]2CCCN2C(=O)[C@H](C(C)C)NC(=O)[C@H](CC(=O)O)NC(=O)[C@@H]2CSCC(=O)N3CCN(CCN(CC3)C(=O)CSC[C@@H](C(=O)N[C@@H](C)C(=O)N[C@@H](CCCCNC(=O)CCc3cn(CCOCCOCCOCCOCCOCCOCCOCCOCCOCCOCCOCCOCCOCCOCCOCCOCCOCCOCCOCCOCCOCCOCCOCCNC(=O)CCOCC(COCCC(=O)NCCOCCOCCOCCOCCOCCOCCOCCOCCOCCOCCOCCOCCOCCOCCOCCOCCOCCOCCOCCOCCOCCOCCOCCn4cc(CCC(=O)NCCCC[C@H](NC(=O)[C@H](C)NC(=O)[C@@H]5CSCC(=O)N6CCN7CCN(CC6)C(=O)CSC[C@H](NC(=O)[C@H](Cc6cccc8ccccc68)NC(=O)[C@H](CC(=O)O)NC(=O)[C@H](C)NC(=O)[C@H](CC(=O)O)NC(=O)[C@@H](NC(=O)[C@H](C)N)CSCC7=O)C(=O)N[C@@H](CC(=O)O)C(=O)N[C@@H](C(C)C)C(=O)N6CCC[C@H]6C(=O)N[C@@H](CO)C(=O)N[C@@H](CC(C)C)C(=O)N6CCC[C@H]6C(=O)N5)C(N)=O)nn4)(COCCC(=O)NCCOCCOCCOCCOCCOCCOCCOCCOCCOCCOCCOCCOCCOCCOCCOCCOCCOCCOCCOCCOCCOCCOCCOCCn4cc(CCC(=O)NCCCC[C@H](NC(=O)[C@H](C)NC(=O)[C@@H]5CSCC(=O)N6CCN7CCN(CC6)C(=O)CSC[C@H](NC(=O)[C@H](Cc6cccc8ccccc68)NC(=O)[C@H](CC(=O)O)NC(=O)[C@H](C)NC(=O)[C@H](CC(=O)O)NC(=O)[C@@H](NC(=O)[C@H](C)N)CSCC7=O)C(=O)N[C@@H](CC(=O)O)C(=O)N[C@@H](C(C)C)C(=O)N6CCC[C@H]6C(=O)N[C@@H](CO)C(=O)N[C@@H](CC(C)C)C(=O)N6CCC[C@H]6C(=O)N5)C(N)=O)nn4)COCCC(=O)NCCOCCOCCOCCOCCOCCOCCOCCOCCOCCOCCOCCOCCOCCOCCOCCOCCOCCOCCOCCOCCOCCOCCOCCn4cc(CCC(=O)NCCCC[C@H](NC(=O)[C@H](C)NC(=O)[C@@H]5CSCC(=O)N6CCN7CCN(CC6)C(=O)CSC[C@H](NC(=O)[C@H](Cc6cccc8ccccc68)NC(=O)[C@H](CC(=O)O)NC(=O)[C@H](C)NC(=O)[C@H](CC(=O)O)NC(=O)[C@@H](NC(=O)[C@H](C)N)CSCC7=O)C(=O)N[C@@H](CC(=O)O)C(=O)N[C@@H](C(C)C)C(=O)N6CCC[C@H]6C(=O)N[C@@H](CO)C(=O)N[C@@H](CC(C)C)C(=O)N6CCC[C@H]6C(=O)N5)C(N)=O)nn4)nn3)C(N)=O)NC(=O)[C@@H]3CCCN3C1=O)C(=O)CSC[C@H](NC(=O)[C@H](C)N)C(=O)N[C@@H](CC(=O)O)C(=O)N[C@@H](C)C(=O)N[C@@H](CC(=O)O)C(=O)N[C@@H](Cc1cccc3ccccc13)C(=O)N2 [BCY12262]
  inhibition of white blood cell adhesion (in words): significant inhibition
Higher doses (100 nM to 10 μM), WBC from a convalescent COVID-19 patient
  inhibition of white blood cell adhesion: approximately 70%
